Experimental findings from publication doi:10.1101/2023.10.30.564738 (bioRxiv, 2023) are described below.

By UniProt entry, the sequences of proteins in these tests, tags left out. Where a name states a change or a piece, a line headed by the entry shows the natural chain unless it says otherwise.
UniProt P40460: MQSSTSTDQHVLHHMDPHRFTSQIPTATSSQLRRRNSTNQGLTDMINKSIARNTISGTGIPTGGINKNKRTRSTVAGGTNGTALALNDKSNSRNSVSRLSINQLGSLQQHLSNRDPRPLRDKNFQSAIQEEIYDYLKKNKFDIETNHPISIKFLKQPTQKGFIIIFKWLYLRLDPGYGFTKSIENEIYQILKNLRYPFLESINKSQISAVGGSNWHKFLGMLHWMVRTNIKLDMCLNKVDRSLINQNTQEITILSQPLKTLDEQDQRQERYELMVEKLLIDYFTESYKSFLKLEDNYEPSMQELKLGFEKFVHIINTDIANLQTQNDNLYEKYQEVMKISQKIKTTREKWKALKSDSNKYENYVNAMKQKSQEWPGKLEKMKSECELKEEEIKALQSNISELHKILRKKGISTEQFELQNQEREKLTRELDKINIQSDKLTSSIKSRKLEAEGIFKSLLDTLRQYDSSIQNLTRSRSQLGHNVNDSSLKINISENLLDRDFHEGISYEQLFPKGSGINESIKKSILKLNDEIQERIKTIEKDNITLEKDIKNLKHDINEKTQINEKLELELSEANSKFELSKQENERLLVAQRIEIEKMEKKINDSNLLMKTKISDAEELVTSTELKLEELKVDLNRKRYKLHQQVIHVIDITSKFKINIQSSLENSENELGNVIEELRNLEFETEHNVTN
UniProt P33895: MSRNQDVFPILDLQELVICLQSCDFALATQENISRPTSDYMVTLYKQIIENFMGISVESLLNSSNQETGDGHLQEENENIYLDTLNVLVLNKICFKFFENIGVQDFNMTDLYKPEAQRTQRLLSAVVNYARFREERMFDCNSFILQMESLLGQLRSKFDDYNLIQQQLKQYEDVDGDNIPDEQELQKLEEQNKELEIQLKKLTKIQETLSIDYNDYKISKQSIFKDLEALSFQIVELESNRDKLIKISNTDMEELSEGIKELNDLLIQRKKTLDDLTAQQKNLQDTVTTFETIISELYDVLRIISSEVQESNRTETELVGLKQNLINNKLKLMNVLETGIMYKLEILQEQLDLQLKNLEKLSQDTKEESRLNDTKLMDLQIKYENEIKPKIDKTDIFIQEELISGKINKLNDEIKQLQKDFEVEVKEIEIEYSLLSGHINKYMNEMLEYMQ
UniProt Q04477: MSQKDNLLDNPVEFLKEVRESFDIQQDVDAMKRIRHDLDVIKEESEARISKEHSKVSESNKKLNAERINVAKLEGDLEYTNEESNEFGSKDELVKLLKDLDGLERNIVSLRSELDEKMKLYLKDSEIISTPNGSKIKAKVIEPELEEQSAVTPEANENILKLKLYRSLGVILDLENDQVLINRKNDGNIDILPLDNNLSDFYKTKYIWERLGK
UniProt P40014: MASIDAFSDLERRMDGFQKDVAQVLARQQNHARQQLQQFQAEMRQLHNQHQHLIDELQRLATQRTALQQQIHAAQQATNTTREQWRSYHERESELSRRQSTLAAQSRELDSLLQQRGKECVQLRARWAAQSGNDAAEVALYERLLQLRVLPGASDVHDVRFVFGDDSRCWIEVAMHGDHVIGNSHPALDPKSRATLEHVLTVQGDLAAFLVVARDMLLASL

Residue numbers refer to the chain shown, from its start. In names and notes the source's numbering stands. Like-named read-outs stand apart in the source and are kept apart here. These are yes or no findings as the source states them, for the method shown. In cells and extracts the contact can be indirect. Some binding calls cover weakened binding; strength is not graded here. Where a sequence is shown, tags or fusion partners need not be part of it.

Assay [1] has as its target T1, MBP fusion encompassing Mps1 residues 1–173 (S. cerevisiae) (UniProt P54199).
T1 sequence: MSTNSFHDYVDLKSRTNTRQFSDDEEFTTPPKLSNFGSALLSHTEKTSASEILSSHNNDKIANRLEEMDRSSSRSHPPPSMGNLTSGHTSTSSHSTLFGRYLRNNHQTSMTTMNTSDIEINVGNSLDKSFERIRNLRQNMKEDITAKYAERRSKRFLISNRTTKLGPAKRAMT
Description: pull-down.

For assay [2], the target named is T2, MBP fusion of Mps1 1–143 (S. cerevisiae) (UniProt P54199).
T2 sequence: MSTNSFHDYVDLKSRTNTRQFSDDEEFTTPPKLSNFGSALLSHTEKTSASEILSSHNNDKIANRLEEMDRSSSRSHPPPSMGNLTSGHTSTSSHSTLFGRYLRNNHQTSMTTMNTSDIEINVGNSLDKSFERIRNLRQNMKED
Description: pull-down.

Assay [3] has as its target T3, MBP-Mps1^1–250–8xHis (wild type) (S. cerevisiae) (UniProt P54199).
T3 sequence: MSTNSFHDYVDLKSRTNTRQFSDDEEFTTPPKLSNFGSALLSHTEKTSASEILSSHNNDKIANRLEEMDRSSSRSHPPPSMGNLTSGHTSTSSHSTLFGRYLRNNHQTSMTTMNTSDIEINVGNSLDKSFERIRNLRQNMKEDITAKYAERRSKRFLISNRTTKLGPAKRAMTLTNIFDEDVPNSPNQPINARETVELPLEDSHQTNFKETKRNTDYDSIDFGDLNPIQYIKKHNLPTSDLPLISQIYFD
Briefly: pull-down.

Assay [4] deals with T4, MBP-Mps1^1–250, bp (R151D R152D R155D) (S. cerevisiae) (UniProt P54199).
T4 sequence: T3 sequence with R151D, R152D, R155D
Description: pull-down.

The target of assay [5] is T3, MBP-Mps1^1–250–8xHis (wild type) (S. cerevisiae). Description: pull-down. This is another data set of the same source.
Assay [6] deals with Ndc80 complex (Ndc80-Flag:Nuf2:Spc24:Spc25) (S. cerevisiae) (UniProt P40460+P33895+Q04477+P40014). Description: co-IP.

Regarding “Ndc80 complex (Ndc80-Flag:Nuf2:Spc24:Spc25) (from UniProt P40460 1-691; P33895 1-451; Q04477 1-213; P40014 1-221)”, the binding entry is “binds” in assay [1]; “no binding” in assay [2]; “binds” in assay [3]; “binds” in assay [4]; “binds” in assay [5].

B1: StrepII-tagged full-length Mps1^hm (F156D L165A) (protein, UniProt P54199 1-764)
chain: MSTNSFHDYVDLKSRTNTRQFSDDEEFTTPPKLSNFGSALLSHTEKTSASEILSSHNNDKIANRLEEMDRSSSRSHPPPSMGNLTSGHTSTSSHSTLFGRYLRNNHQTSMTTMNTSDIEINVGNSLDKSFERIRNLRQNMKEDITAKYAERRSKRDLISNRTTKAGPAKRAMTLTNIFDEDVPNSPNQPINARETVELPLEDSHQTNFKETKRNTDYDSIDFGDLNPIQYIKKHNLPTSDLPLISQIYFDKQREENRQAALRKHSSRELLYKSRSSSSSLSSNNLLANKDNSITSNNGSQPRRKVSTGSSSSKSSIEIRRALKENIDTSNNSNFNSPIHKIYKGISRNKDSDSEKREVLRNISINANHADNLLQQENKRLKRSLDDAITNENINSKNLEVFYHRPAPKPPVTKKVEIVEPAKSASLSNNRNIITVNDSQYEKIELLGRGGSSRVYKVKGSGNRVYALKRVSFDAFDDSSIDGFKGEIELLEKLKDQKRVIQLLDYEMGDGLLYLIMECGDHDLSQILNQRSGMPLDFNFVRFYTKEMLLCIKVVHDAGIVHSDLKPANFVLVKGILKIIDFGIANAVPEHTVNIYRETQIGTPNYMAPEALVAMNYTQNSENQHEGNKWKVGRPSDMWSCGCIIYQMIYGKPPYGSFQGQNRLLAIMNPDVKIPFPEHTSNNEKIPKSAIELMKACLYRNPDKRWTVDKVLSSTFLQPFMISGSIMEDLIRNAVRYGSEKPHISQDDLNDVVDTVLRKFADYKI
For B1, the binding result in assay [6] is recorded as “binds weakly”.

B2: StrepII-tagged full-length Mps1^hm+bp (R151D R152D R155D F156D L165A) (protein, UniProt P54199 1-764)
chain: B1 chain with R151D, R152D, R155D
As for B2, in assay [6], the binding entry is given as “binds weakly”.
